Measurements published in PMC11994786.
These are yes or no findings as the source states them, for the method shown. In cells and extracts the contact can be indirect. Here binding means that the protein was enriched with, or labelled near, the bait; the list need not be complete.

Protein sequences, listed by entry. Tags and fused reporters are not part of them.
UniProt P69566: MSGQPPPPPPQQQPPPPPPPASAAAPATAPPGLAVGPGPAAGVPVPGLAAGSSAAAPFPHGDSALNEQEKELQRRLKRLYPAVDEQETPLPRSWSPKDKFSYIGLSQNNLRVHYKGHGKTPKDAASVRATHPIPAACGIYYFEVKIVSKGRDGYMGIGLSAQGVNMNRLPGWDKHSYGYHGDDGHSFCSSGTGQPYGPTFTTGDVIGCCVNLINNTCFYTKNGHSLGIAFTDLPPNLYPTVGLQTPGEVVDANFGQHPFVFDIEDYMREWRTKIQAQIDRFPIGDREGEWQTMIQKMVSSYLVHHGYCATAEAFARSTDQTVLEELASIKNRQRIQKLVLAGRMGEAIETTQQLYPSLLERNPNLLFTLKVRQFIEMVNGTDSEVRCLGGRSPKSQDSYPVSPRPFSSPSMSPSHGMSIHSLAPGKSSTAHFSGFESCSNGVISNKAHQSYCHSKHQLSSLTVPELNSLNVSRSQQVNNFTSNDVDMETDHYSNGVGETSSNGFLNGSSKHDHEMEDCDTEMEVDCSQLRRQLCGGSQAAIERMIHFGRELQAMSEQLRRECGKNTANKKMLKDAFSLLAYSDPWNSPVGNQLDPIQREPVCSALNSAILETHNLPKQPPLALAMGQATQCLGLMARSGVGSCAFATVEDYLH

B1: Lyz2 (Lysozyme 2 or Lysozyme M) (protein, UniProt P08905 19-148)
chain: KVYERCEFARTLKRNGMAGYYGVSLADWVCLAQHESNYNTRATNYNRGDQSTDYGIFQINSRYWCNDGKTPRAVNACGINCSALLQDDITAAIQCAKRVVRDPQGIRAWVAWRAHCQNRDLSQYIRNCGV
B2: Msr1 (Macrophage scavenger Receptor 1) (protein, UniProt P30204 1-458)
chain: MTKEMTENQRLCPHEQEDADCSSESVKFDARSMTASLPHSTKNGPSLQEKLKSFKAALIALYLLVFAVLIPVVGIVTAQLLNWEMKNCLVCSLNTSDTSQGPMEKENTSKVEMRFTIIMEHMKDMEERIESISNSKADLIDTERFQNFSMATDQRLNDILLQLNSLISSVQEHGNSLDAISKSLQSLNMTLLDVQLHTETLNVRVRESTAKQQEDISKLEERVYKVSAEVQSVKEEQAHVEQEVKQEVRVLNNITNDLRLKDWEHSQTLKNITFIQGPPGPQGEKGDRGLTGQTGPPGAPGIRGIPGVKGDRGQIGFPGGRGNPGAPGKPGRSGSPGPKGQKGEKGSVGGSTPLKTVRLVGGSGAHEGRVEIFHQGQWGTICDDRWDIRAGQVVCRSLGYQEVLAVHKRAHFGQGTGPIWLNEVMCFGRESSIENCKINQWGVLSCSHSEDAGVTCTS
B3: Phkb (Phosphorylase kinase regulatory subunit b) (protein, UniProt Q7TSH2 1-1085)
chain: MANSPDAAFSSPALLRSGSVYEPLKSINLPRPDNETLWDKLDHYYRIVKSTMLMYQSPTTGLFPTKTCGGEEKSKVHESLYCAAGAWALALAYRRIDDDKGRTHELEHSAIKCMRGILYCYMRQADKVQQFKQDPRPTTCLHSVFSVHTGDELLSYEEYGHLQINAVSLFLLYLVEMISSGLQIIYNTDEVSFIQNLVFCVERVYRVPDFGVWERGSKYNNGSTELHSSSVGLAKAALEAINGFNLFGNQGCSWSVIFVDLDAHNRNRQTLCSLLPRESRSHNTDAALLPCISYPAFALDDEALFSQTLDKVIRKLKGKYGFKRFLRDGYRTPLEDPNRRYYKPAEIKLFDGIECEFPIFFLYMMIDGVFRGNLEQVKEYQDLLTPLLHQTTEGYPVVPKYYYVPADFVECEKRNPGSQKRFPSNCGRDGKLFLWGQALYIIAKLLADELISPKDIDPVQRFVPLQNQRNVSMRYSNQGPLENDLVVHVALVAESQRLQVFLNTYGIQTQTPQQVEPIQIWPQQELVKAYFHLGINEKLGLSGRPDRPIGCLGTSKIYRILGKTVVCYPIIFDLSDFYMSQDVLLLIDDIKNALQFIKQYWKMHGRPLFLVLIREDNIRGSRFNPILDMLAAFKKGIIGGVKVHVDRLQTLISGAVVEQLDFLRISDTEKLPEFKSFEELEFPKHSKVKRQSSTADAPEAQHEPGITITEWKNKSTHEILQKLNDCGCLAGQTILLGILLKREGPNFITMEGTVSDHIERVYRRAGSKKLWSVVRRAASLLNKVVDSLAPSITNVLVQGKQVTLGAFGHEEEVISNPLSPRVIKNIIYYKCNTHDEREAVIQQELVIHIGWIISNSPELFSGMLKIRIGWIIHAMEYELQVRGGDKPAVDLYQLSPSEVKQLLLDILQPQQSGRCWLNRRQIDGSLNRTPPEFYDRVWQILERTPNGIVVAGKHLPQQPTLSDMTMYEMNFSLLVEDMLGNIDQPKYRQIIVELLMVVSIVLERNPELEFQDKVDLDRLVKEAFHEFQKDESRLKEIEKQDDMTSFYNTPPLGKRGTCSYLTKVVMNSLLEGEVKPSNEDSCLVS
B4: Akr1e1 (Aldo-Keto Reductase Family 1 Member E) (protein, UniProt Q8CEB6 1-245)
chain: MENIPTVGLGTWKLWCTCHKKSLVKTACTNTLEALNLDYLDLYLIHWPMGFKPGEKDIPLDRNGKVIPSHTSFLDTWEAMEDLVFEGLVKNLGVSNFNHEQLERLLDKPGLRVRPITNQIECHPYLNQKKLIDFCHKRNVSVTAYRPLGGSGGGFHLMDDTVIRKIAKKHGKSPAQILIRFQIQRNLIVIPKSVTPSRIRENIQVFDFELTEKDMEELLSLDKNLRLATFPTTENHQDYPFHIEY
B5: Man2c1 (Mannosidase Alpha Class 2C member 1) (protein, UniProt Q91W89 1-1039)
chain: MAAAPFLKHWRTTFERVEKFVSPIYFTDCNLRGRLFGDSCSVTLSSFLTPERLPYEKAVQQNFSPAQVGDSFGPTWWTCWFRVELVIPEVWVGQEVHLCWESDGESLVWRDGEPVQGLTKEGEKTSYVLSERLRASDPRSLTLYVEVACNGLLGAGKGSMIAAPDPEKMFQLSQAKLAVFHRDVHSLLVDLELLLGVAKGLGEDSQRSFQALHTANQMVNICDPAQPETYPAAKALASKFFGQHGGESQHTIHAMGHCHIDTAWLWPFKETVRKCARSWSTAVTLMEQNTDFIFACSQAQQLEWVKSQYPGLHARLQEFACRGQFVPVGGTWVEMDGNLPSGEAMVRQFLQGQNFFLQEFGKMCSEFWLPDTFGYSAQLPQIMQGCGIKRFLTQKLSWNLVNSFPHHTFFWEGLDGSRVLVHFPPGDSYGMQGSVEEVLKTVTNNRDKGRTNHSGFLFGFGDGGGGPTQTMLDRLKRLSNTDGLPRVQLSSPGQLFTALERDSGQLCTWVGELFLELHNGTYTTHAQLKKGNRECEQILHDVEVLSSLALARSAQFLYPAAQLQHLWRLLLLNQFHDVVTGSCIQLVAEDAMNYYEDIRSHGNPLLSAAAAALCAGEPGPKGLLIINTLPWKRTEVLALPKPCGAHSLALVTVPSIGYAPAPTPTSLQPLLPQQPVFVMQETDGSVTLDNGIIRVRLDPTGCLTSLVLVASGREAIAEGALGNQFVLFDDVPLYWDAWDVMDYHLETRKPVLGQAGTLAVGTEGGLRGSAWFLLQISPNSRLSQEVVLDVGCPYVRFHTEVHWHEAHKFLKVEFPARIRSPQATYEIQFGHLQRPTHNNTSWDWARYEVWAHRWIDLSECDFGLALLNNCKYGASVRGNVLSLSLLRAPKAPDATADMGRHEFTYALMPHKGSFQEAGVIHAAYNLNFPLLALPAPGPAPDTTWSAFSVSSPAVVLETIKQAERCHQHRTLVLRLYEAHGSHVDCWLHTSLPVQEATLCDLLEQRDPTGHLSLQDNRLKLTFSPFQVRSLLLVLQSPPN
B6: Entpd1 (Ectonucleoside Triphosphate Diphosphohydrolase 1) (protein, UniProt P55772 1-510)
chain: MEDIKDSKVKRFCSKNILIILGFTSILAVIALIAVGLTQNKPLPENVKYGIVLDAGSSHTNLYIYKWPAEKENDTGVVQQLEECQVKGPGISKYAQKTDEIGAYLAECMELSTELIPTSKHHQTPVYLGATAGMRLLRMESEQSADEVLAAVSTSLKSYPFDFQGAKIITGQEEGAYGWITINYLLGRFTQEQSWLSLISDSQKQETFGALDLGGASTQITFVPQNSTIESPENSLQFRLYGEDYTVYTHSFLCYGKDQALWQKLAKDIQVSSGGVLKDPCFNPGYEKVVNVSELYGTPCTKRFEKKLPFDQFRIQGTGDYEQCHQSILELFNNSHCPYSQCAFNGVFLPPLHGSFGAFSAFYFVMDFFKKVAKNSVISQEKMTEITKNFCSKSWEETKTSYPSVKEKYLSEYCFSGAYILSLLQGYNFTDSSWEQIHFMGKIKDSNAGWTLGYMLNLTNMIPAEQPLSPPLPHSTYIGLMVLFSLLLVAVAITGLFIYSKPSYFWKEAV
B7: Mcm5 (protein, UniProt P49718 1-734)
chain: MSGFDDPGIFYSDSFGGDPGAEEGQARKSQLQRRFKEFLRQYRVGTDRTGFTFKYRDELKRHYNLGEYWIEVEMEDLASFDEELADHLHKQPAEHLQLLEEAAKEVADEVTRPRPAGDELLQDIQVMLKSDASPSSIRILKSDMMSHLVKIPGIIISASAVRAKATRISIQCRSCHNTLTNIAMRPGLEGYALPRKCNMDQAGRPKCPLDPYFIMPDKCKCVDFQTLKLQELPDAVPHGEMPRHMQLYCDRYLCDKVVPGNRVTIMGIYSIKKFGLNPSKGRDRVGVGIRSSYIRVLGIQVDTDGSGRSFAGSVSPQEEEEFRRLAALPNIYELISKSISPSIFGGMDMKKAIACLLFGGSRKRLPDGLTRRGDINLLMLGDPGTAKSQLLKFVEKCSPIGVYTSGKGSSAAGLTASVIRDPSSRNFIMEGGAMVLADGGVVCIDEFDKMREDDRVAIHEAMEQQTISIAKAGITTTLNSRCSVLAAANSVFGRWDETKGEDNIDFMPTILSRFDMIFIVKDEHNEERDMMLAKHVMTLHVSALTQTQAVEGEIDLAKMKKFIAYCRARCGPRLSAEAAEKLKNRYIIMRSGARQHERDSDRRSSIPITVRQLEAIVRIAEALSKMKLQPFATEADVEEALRLFQVSTLDAALSGNLSGVEGFTTQEDQEMLSRIEKQLKRRFAIGSQVSEHSIVQDFTKQKYPEHAIRKVLQLMLRRGEIQHRMQRKVLYRLK

What was measured:
[1] = target: RanBP9-V5 (Ran Binding Protein 9 with a V5 tag at the C-terminus) (mouse) (UniProt P69566); assay: affinity purification with mass spectrometry; anti-V5 magnetic beads on 1 mg pre-cleared whole lung lysate of LysMBP9X mice, overnight at 4 °C, on-bead trypsin digestion, LC-MS/MS; hits significant (p ≤ 0.05) against V5-IP from WT mice and Ig-IPs
[2] = target: RanBP9-3xHA (Ran Binding Protein 9 fused to three copies of the HA tag) (mouse) (UniProt P69566); assay: affinity purification with mass spectrometry; anti-HA magnetic beads on 1 mg pre-cleared whole lung lysate of LysMBP9X mice, overnight at 4 °C, on-bead trypsin digestion, LC-MS/MS; hits significant (p ≤ 0.05) against HA-IP from WT mice and Ig-IPs

Binder | binding [1] | binding [2]
B1 | binds | –
B2 | binds | –
B3 | binds | –
B4 | binds | –
B5 | – | binds
B6 | – | binds
B7 | – | binds
